Experimental data: patent US20090197928A1, “Novel Receptor Antagonists and Their Methods of Use” (Glaxo Group Limited, priority 2006, published 2009)
Some of these results come from one statement about several compounds together.

target: T1, human recombinant P2X7 receptors (Homo sapiens, UniProt Q99572); test: FLIPR Ca Assay; format: cell-based; details: HEK293 cells expressing human recombinant P2X7; BzATP 60 μM; stated as and/or with ethidium assay
T1 construct: expressed in transfected cells; host or cells: HEK293
T1 sequence (Q99572 1-595): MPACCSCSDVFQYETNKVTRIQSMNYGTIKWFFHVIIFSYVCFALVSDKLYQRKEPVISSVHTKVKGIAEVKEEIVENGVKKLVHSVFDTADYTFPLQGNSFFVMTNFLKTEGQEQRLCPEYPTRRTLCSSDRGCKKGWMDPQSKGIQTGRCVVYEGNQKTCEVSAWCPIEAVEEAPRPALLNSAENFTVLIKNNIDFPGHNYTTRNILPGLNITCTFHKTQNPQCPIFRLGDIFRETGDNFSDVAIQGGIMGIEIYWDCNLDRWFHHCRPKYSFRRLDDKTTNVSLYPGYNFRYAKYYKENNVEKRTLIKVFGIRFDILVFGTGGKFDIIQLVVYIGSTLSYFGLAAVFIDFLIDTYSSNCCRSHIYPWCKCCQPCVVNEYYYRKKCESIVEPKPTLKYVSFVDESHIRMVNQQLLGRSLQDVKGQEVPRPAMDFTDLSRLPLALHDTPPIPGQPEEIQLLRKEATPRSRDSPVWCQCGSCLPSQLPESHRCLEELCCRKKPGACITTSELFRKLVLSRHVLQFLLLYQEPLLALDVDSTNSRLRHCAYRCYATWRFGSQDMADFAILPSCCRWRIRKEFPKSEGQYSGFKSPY

| SMILES | Antagonist pIC50 for blocking BzATP responses (FLIPR Ca Assay) |
| --- | --- |
| Cc1noc(C)c1CC(=O)NCc1cccc(Cl)c1C [Example E5, N-[(3-Chloro-2-methylphenyl)methyl]-2-(3,5-dimethyl-4-isoxazolyl)acetamide] | > 4.7 |
| Cc1ccc(CNC(=O)Cc2c(C)noc2C)c(F)c1 [Example E26, 2-(3,5-Dimethyl-4-isoxazolyl)-N-[(2-fluoro-4-methylphenyl)methyl]acetamide] | > 4.7 |
| Cc1ccc(CNC(=O)Cc2c(C)noc2C)c(C)c1 [Example E21, 2-(3,5-Dimethyl-4-isoxazolyl)-N-[(2,4-dimethylphenyl)methyl]acetamide] | > 4.7 |
| Cc1noc(C)c1CC(=O)NCc1ccc(F)cc1Br [Example E2, N-[(2-Bromo-4-fluorophenyl)methyl]-2-(3,5-dimethyl-4-isoxazolyl)acetamide] | > 4.7 |
| Cc1noc(C)c1CC(=O)NCc1ccccc1Br [Example E7, N-[(2-Bromophenyl)methyl]-2-(3,5-dimethyl-4-isoxazolyl)acetamide] | > 4.7 |
| Cc1cccc(CNC(=O)Cc2c(C)noc2C)c1C [Example E28, 2-(3,5-Dimethyl-4-isoxazolyl)-N-[(2,3-dimethylphenyl)methyl]acetamide] | > 4.7 |
| Cc1noc(C)c1CC(=O)NCc1ccc(Cl)cc1 [Example E16, N-[(4-Chlorophenyl)methyl]-2-(3,5-dimethyl-4-isoxazolyl)acetamide] | > 4.7 |
| Cc1ccc(Cl)c(CNC(=O)Cc2c(C)noc2C)c1F [Example E29, N-[(6-Chloro-2-fluoro-3-methylphenyl)methyl]-2-(3,5-dimethyl-4-isoxazolyl)acetamide] | > 4.7 |
| Cc1noc(C)c1CC(=O)NCc1ccc(F)cc1Cl [Example E1, N-[(2-Chloro-4-fluorophenyl)methyl]-2-(3,5-dimethyl-4-isoxazolyl)acetamide] | > 4.7 |
| Cc1cc(Cl)ccc1CNC(=O)Cc1c(C)noc1C [Example E23, N-[(4-Chloro-2-methylphenyl)methyl]-2-(3,5-dimethyl-4-isoxazolyl)acetamide] | > 4.7 |
| Cc1noc(C)c1CC(=O)NCc1cccc(C(F)(F)F)c1C [Example E36, 2-(3,5-Dimethyl-4-isoxazolyl)-N-{[2-methyl-3-(trifluoromethyl)phenyl]methyl}acetamide] | > 4.7 |
| Cc1noc(C)c1CC(=O)NCc1cccc(F)c1C [Example E25, 2-(3,5-Dimethyl-4-isoxazolyl)-N-[(3-fluoro-2-methylphenyl)methyl]acetamide] | > 4.7 |
| Cc1noc(C)c1CC(=O)NCc1ccc(Cl)cc1Cl [Example E11, N-[(2,4-Dichlorophenyl)methyl]-2-(3,5-dimethyl-4-isoxazolyl)acetamide] | > 4.7 |
| Cc1noc(C)c1CC(=O)NCc1cccc(Cl)c1Cl [Example E19, N-[(2,3-Dichlorophenyl)methyl]-2-(3,5-dimethyl-4-isoxazolyl)acetamide] | > 4.7 |
| Cc1noc(C)c1CC(=O)NCc1ccc(C(F)(F)F)cc1 [Example E18, 2-(3,5-Dimethyl-4-isoxazolyl)-N-{[4-(trifluoromethyl)phenyl]methyl}acetamide] | > 4.7 |
| Cc1ccc(CNC(=O)Cc2c(C)noc2C)c(F)c1F [Example E22, N-[(2,3-Difluoro-4-methylphenyl)methyl]-2-(3,5-dimethyl-4-isoxazolyl)acetamide] | > 4.7 |
| Cc1noc(C)c1CC(=O)NCc1c(Cl)cccc1Cl [Example E17, N-[(2,6-Dichlorophenyl)methyl]-2-(3,5-dimethyl-4-isoxazolyl)acetamide] | > 4.7 |
| Cc1noc(C)c1CC(=O)NCc1cccc(C(F)(F)F)c1F [Example E33, 2-(3,5-Dimethyl-4-isoxazolyl)-N-{[2-fluoro-3-(trifluoromethyl)phenyl]methyl}acetamide] | > 4.7 |
| Cc1noc(C)c1CC(=O)NCc1ccc(Cl)c(C(F)(F)F)c1 [Example E10, N-{[4-Chloro-3-(trifluoromethyl)phenyl]methyl}-2-(3,5-dimethyl-4-isoxazolyl)acetamide] | > 4.7 |

| SMILES | Antagonist pIC50 for blocking BzATP responses (FLIPR Ca Assay) |
| --- | --- |
| Cc1ccc(F)c(CNC(=O)Cc2c(C)noc2C)c1Cl [Example E30, N-[(2-Chloro-6-fluoro-3-methylphenyl)methyl]-2-(3,5-dimethyl-4-isoxazolyl)acetamide] | > 4.7 |
| Cc1noc(C)c1CC(=O)NCc1ccc(F)c(Cl)c1F [Example E35, N-[(3-Chloro-2,4-difluorophenyl)methyl]-2-(3,5-dimethyl-4-isoxazolyl)acetamide] | > 4.7 |
| Cc1noc(C)c1CC(=O)NCc1ccc(F)cc1C(F)(F)F [Example E12, 2-(3,5-Dimethyl-4-isoxazolyl)-N-{[4-fluoro-2-(trifluoromethyl)phenyl]methyl}acetamide] | > 4.7 |
| Cc1cccc(Cl)c1CNC(=O)Cc1c(C)noc1C [Example E4, N-[(2-Chloro-6-methylphenyl)methyl]-2-(3,5-dimethyl-4-isoxazolyl)acetamide] | > 4.7 |
| Cc1ccc(F)c(CNC(=O)Cc2c(C)noc2C)c1F [Example E27, N-[(2,6-Difluoro-3-methylphenyl)methyl]-2-(3,5-dimethyl-4-isoxazolyl)acetamide] | > 4.7 |
| Cc1noc(C)c1CC(=O)NCc1ccc(Cl)c(Cl)c1 [Example E6, N-[(3,4-Dichlorophenyl)methyl]-2-(3,5-dimethyl-4-isoxazolyl)acetamide] | > 4.7 |
| Cc1noc(C)c1CC(=O)NCc1ccccc1Cl [Example E8, N-[(2-Chlorophenyl)methyl]-2-(3,5-dimethyl-4-isoxazolyl)acetamide] | > 4.7 |
| Cc1cc(F)ccc1CNC(=O)Cc1c(C)noc1C [Example E24, 2-(3,5-Dimethyl-4-isoxazolyl)-N-[(4-fluoro-2-methylphenyl)methyl]acetamide] | > 4.7 |
| Cc1noc(C)c1CC(=O)NCc1ccc(F)c(F)c1F [Example E3, 2-(3,5-Dimethyl-4-isoxazolyl)-N-[(2,3,4-trifluorophenyl)methyl]acetamide] | > 4.7 |
| Cc1noc(C)c1CC(=O)NCc1c(F)cccc1Cl [Example E9, N-[(2-Chloro-6-fluorophenyl)methyl]-2-(3,5-dimethyl-4-isoxazolyl)acetamide] | > 4.7 |
| Cc1ccccc1CNC(=O)Cc1c(C)noc1C [Example E14, 2-(3,5-Dimethyl-4-isoxazolyl)-N-[(2-methylphenyl)methyl]acetamide] | > 4.7 |
| Cc1noc(C)c1CC(=O)NCc1ccc(C(F)(F)F)c(F)c1 [Example E32] | > 4.7 |
| CC(C)c1noc(C(C)C)c1CC(=O)NCc1ccc(F)cc1Cl [Example E37, 2-[3,5-Bis(1-methylethyl)-4-isoxazolyl]-N-[(2-chloro-4-fluorophenyl)methyl]acetamide] | > 4.7 |
| Cc1noc(C)c1CC(=O)NCc1ccc(F)cc1F [Example E15, N-[(2,4-Difluorophenyl)methyl]-2-(3,5-dimethyl-4-isoxazolyl)acetamide] | > 4.7 |
| Cc1noc(C)c1CC(=O)NCc1cccc(C(F)(F)F)c1Cl [Example E31, N-{[2-Chloro-3-(trifluoromethyl)phenyl]methyl}-2-(3,5-dimethyl-4-isoxazolyl)acetamide] | > 4.7 |
| Cc1noc(C)c1CC(=O)NCc1cccc(Cl)c1F [Example E34, N-[(3-Chloro-2-fluorophenyl)methyl]-2-(3,5-dimethyl-4-isoxazolyl)acetamide] | > 4.7 |
| CCc1noc(CC)c1CC(=O)NCc1ccc(F)cc1Cl [Example E38, N-[(2-Chloro-4-fluorophenyl)methyl]-2-(3,5-diethyl-4-isoxazolyl)acetamide] | > 4.7 |
| Cc1noc(C)c1CC(=O)NCc1ccc(F)c(F)c1Cl [Example E13, N-[(2-Chloro-3,4-difluorophenyl)methyl]-2-(3,5-dimethyl-4-isoxazolyl)acetamide] | > 4.7 |
| Cc1noc(C)c1CC(=O)NCc1cccc(Cl)c1 [Example E20] | > 4.7 |
